Data from paper PMC9137164.
These are yes or no findings as the source states them, for the method shown. Binding seen in cells or lysates may run through a third protein. Some entries that bind do so weakly or less than the wild type.

Target: RIP3 (mouse) (mouse (endogenous in CIRI mice)), Q9QZL0
Experiment: co-IP; endogenous proteins from CIRI mice with or without NAC; antibody on Protein A/G magnetic beads, western blot
Details: remark: other sources report otherwise

binding: binds
B1: RIP1 (mouse), Q60855 1-656 (protein)
chain: MQPDMSLDNIKMASSDLLEKTDLDSGGFGKVSLCYHRSHGFVILKKVYTGPNRAEYNEVLLEEGKMMHRLRHSRVVKLLGIIIEEGNYSLVMEYMEKGNLMHVLKTQIDVPLSLKGRIIVEAIEGMCYLHDKGVIHKDLKPENILVDRDFHIKIADLGVASFKTWSKLTKEKDNKQKEVSSTTKKNNGGTLYYMAPEHLNDINAKPTEKSDVYSFGIVLWAIFAKKEPYENVICTEQFVICIKSGNRPNVEEILEYCPREIISLMERCWQAIPEDRPTFLGIEEEFRPFYLSHFEEYVEEDVASLKKEYPDQSPVLQRMFSLQHDCVPLPPSRSNSEQPGSLHSSQGLQMGPVEESWFSSSPEYPQDENDRSVQAKLQEEASYHAFGIFAEKQTKPQPRQNEAYNREEERKRRVSHDPFAQQRARENIKSAGARGHSDPSTTSRGIAVQQLSWPATQTVWNNGLYNQHGFGTTGTGVWYPPNLSQMYSTYKTPVPETNIPGSTPTMPYFSGPVADDLIKYTIFNSSGIQIGNHNYMDVGLNSQPPNNTCKEESTSRHQAIFDNTTSLTDEHLNPIRENLGRQWKNCARKLGFTESQIDEIDHDYERDGLKEKVYQMLQKWLMREGTKGATVGKLAQALHQCCRIDLLNHLIRASQS
